For four substances, binding results are on record in article PMC7601683.

Amino acid sequences for entries named in this document (tags omitted). A change or cut given only in a name is not applied to a line headed by its entry. Chains listed by the source or under a name are the forms on record and can include a tag or linker.
CD44v3-10 isoform, Ha-tagged (human) (P16070-4, form named): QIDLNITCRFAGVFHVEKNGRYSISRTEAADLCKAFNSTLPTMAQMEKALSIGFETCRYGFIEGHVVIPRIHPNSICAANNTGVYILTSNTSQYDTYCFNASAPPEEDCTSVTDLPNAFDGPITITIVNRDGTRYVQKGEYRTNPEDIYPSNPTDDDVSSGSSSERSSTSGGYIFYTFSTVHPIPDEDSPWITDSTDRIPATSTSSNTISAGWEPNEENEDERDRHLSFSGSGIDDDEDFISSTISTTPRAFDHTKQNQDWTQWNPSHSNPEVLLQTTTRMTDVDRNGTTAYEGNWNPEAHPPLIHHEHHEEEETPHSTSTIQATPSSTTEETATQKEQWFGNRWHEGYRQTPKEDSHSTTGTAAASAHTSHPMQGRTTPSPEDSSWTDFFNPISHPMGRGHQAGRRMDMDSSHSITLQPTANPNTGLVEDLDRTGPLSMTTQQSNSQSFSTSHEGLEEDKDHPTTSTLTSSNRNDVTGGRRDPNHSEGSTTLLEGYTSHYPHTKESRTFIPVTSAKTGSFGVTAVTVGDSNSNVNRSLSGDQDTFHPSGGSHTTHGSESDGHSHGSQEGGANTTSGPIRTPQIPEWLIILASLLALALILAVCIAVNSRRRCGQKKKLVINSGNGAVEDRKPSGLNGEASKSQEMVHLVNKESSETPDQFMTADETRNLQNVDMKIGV
CD44sC9 isoform (CD44s with truncated cytosolic domain), Ha-tagged (human) (P16070-15, form named): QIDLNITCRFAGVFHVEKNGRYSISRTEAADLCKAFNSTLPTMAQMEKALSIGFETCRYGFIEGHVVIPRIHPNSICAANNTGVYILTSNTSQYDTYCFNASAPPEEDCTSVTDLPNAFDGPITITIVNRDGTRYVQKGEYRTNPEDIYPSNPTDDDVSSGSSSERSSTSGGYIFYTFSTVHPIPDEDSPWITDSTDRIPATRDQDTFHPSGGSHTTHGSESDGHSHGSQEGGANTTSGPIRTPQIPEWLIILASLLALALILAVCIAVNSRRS
CD44v8-10 isoform, Ha-tagged (human) (P16070-10, form named): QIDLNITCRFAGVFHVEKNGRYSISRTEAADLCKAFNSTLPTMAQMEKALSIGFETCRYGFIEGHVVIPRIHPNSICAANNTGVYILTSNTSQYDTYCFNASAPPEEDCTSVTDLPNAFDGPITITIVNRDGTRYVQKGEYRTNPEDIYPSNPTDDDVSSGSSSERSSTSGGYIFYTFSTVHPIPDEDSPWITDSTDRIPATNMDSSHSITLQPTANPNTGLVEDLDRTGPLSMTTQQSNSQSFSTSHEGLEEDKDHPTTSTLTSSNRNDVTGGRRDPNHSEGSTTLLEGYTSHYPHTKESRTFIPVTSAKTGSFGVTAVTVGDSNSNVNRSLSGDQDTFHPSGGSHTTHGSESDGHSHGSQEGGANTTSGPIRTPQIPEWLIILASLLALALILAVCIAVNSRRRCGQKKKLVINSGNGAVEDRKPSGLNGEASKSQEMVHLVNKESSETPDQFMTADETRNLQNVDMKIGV
CD44 standard isoform, Ha-tagged (human) (P16070-12, form named): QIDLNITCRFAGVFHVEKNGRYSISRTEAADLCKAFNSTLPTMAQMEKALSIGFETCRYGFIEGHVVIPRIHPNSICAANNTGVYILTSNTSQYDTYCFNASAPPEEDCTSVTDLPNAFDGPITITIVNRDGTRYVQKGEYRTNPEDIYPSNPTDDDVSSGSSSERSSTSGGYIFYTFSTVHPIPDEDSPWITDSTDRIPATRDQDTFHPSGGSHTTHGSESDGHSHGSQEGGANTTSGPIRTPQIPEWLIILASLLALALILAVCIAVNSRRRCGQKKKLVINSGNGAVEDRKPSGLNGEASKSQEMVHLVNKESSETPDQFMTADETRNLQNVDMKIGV

Changes are numbered by the printed parent chain. No constants are given. Whether binding was seen depends on the method and setting. Binding seen in cells or lysates may run through a third protein. Some binding calls cover weakened binding; strength is not graded here. Tags and fused reporters may be left off the sequences shown.

Assay in all cases: co-IP; HEK293T cells transiently co-transfected with FLAG-tagged podoplanin constructs and Ha-tagged CD44 isoforms; lysed after 24 h in IP buffer (50 mM Tris-HCl pH 7.5, 100 mM NaCl, 5 mM EDTA, 0.5% NP-40, 10% glycerol); about 750 μg lysate, anti-FLAG mAb and protein G Dynabeads overnight at 4 °C; blot with anti-Ha
In assay [1] the target is T1, podoplanin wild-type, FLAG-tagged (human) (human) (UniProt Q86YL7).
T1 sequence: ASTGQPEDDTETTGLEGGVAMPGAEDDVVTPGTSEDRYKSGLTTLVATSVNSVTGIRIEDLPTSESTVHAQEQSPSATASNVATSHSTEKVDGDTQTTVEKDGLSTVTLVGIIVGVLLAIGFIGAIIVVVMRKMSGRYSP

Assay [2] addresses T2, PDPN-S/Tm, FLAG-tagged (human) (UniProt Q86YL7).
T2 sequence: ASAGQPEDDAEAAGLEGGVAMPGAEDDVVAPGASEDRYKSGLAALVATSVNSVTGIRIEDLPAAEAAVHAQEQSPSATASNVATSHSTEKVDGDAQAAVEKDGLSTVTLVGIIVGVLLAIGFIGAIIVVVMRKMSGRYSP

The target of assay [3] is T3, PDPN-PLAG3m, FLAG-tagged (human) (UniProt Q86YL7).
T3 sequence: T1 sequence with E25A, D26A, T30A

In assay [4] the target is T4, PDPN-PLAG4Tm, FLAG-tagged (human) (UniProt Q86YL7).
T4 sequence: T1 sequence with T63A

Assay [5] addresses T5, PDPN-PLAG3/4Tm, FLAG-tagged (human) (UniProt Q86YL7).
T5 sequence: T1 sequence with T30A, T63A

The target in assay [6] is T6, PDPN-G137L, FLAG-tagged (human) (UniProt Q86YL7).
T6 sequence: T1 sequence with G115L

Assay [7] deals with T7, PDPN-PLAG3Tm, FLAG-tagged (human) (UniProt Q86YL7).
T7 sequence: T1 sequence with T30A

For the substance “CD44v3-10 isoform, Ha-tagged (human) (from UniProt P16070-4 21-699)”, in assay [1], the binding result is given as “binds”.
Same read-out and setting: the entry for “CD44sC9 isoform (CD44s with truncated cytosolic domain), Ha-tagged (human) (from UniProt P16070-15 21-294)” is “binds weakly”; for “CD44v8-10 isoform, Ha-tagged (human) (from UniProt P16070-10 21-493)” it is “binds”.
Take “CD44 standard isoform, Ha-tagged (human) (from UniProt P16070-12 21-361)”: the binding entry in assay [2], in assay [3], in assay [1], in assay [4], in assay [5] and in assay [6] was “binds” in each case. Besides, the binding result in assay [7] is “binds”.
